PubChem BioAssay AID1259405 – NCATS | 2018
Purpose: 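Mouse-designed siRNAs used to find CHO productivity engineering targets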 (primary screen). System: Chinese hamster CHO-K1 ovary cells with stable secreted eGFP expression. Knock-down reagent: single siRNA against mouse genes, 0.8 pmol siRNA per well (2 µl of 400 nM stock). Time to read-out: 3 days. Measured: 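Percent of the per-plate non-targeting control median for intracellular GFP per well by laser scanning cytometry and for cell viability by ATP luminescence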. Scale: GFP, % of control: higher = more GFP per well, higher productivity; viability (ATP), % of control: higher = more viable cells (more ATP). Hit rule: 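Called active when intracellular GFP, relative to negative control, is at or above 120%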.
The deposit covers about 50,000 reagents; shown is a random part of them. About 4,000 of them (8%) were called active. 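Mouse siRNA library applied to hamster cells; one well for each siRNA.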 Reagents against one gene are numbered here.

Tm9sf1 #1
- GFP, % of control: 46.8
- viability (ATP), % of control: 29.2
- call: inactive

Tm9sf1 #2
- GFP, % of control: 137
- viability (ATP), % of control: 110
- call: active

Tm9sf1 #3
- GFP, % of control: 77.2
- viability (ATP), % of control: 80.9
- call: inactive

Babam1 #1
- GFP, % of control: 73.8
- viability (ATP), % of control: 60.7
- call: inactive

Babam1 #2
- GFP, % of control: 87
- viability (ATP), % of control: 80.7
- call: inactive

Babam1 #3
- GFP, % of control: 102
- viability (ATP), % of control: 94.8
- call: inactive

Dyrk1b
- GFP, % of control: 139
- viability (ATP), % of control: 120
- call: active

Sorbs2 #1
- GFP, % of control: 56.9
- viability (ATP), % of control: 70
- call: inactive

Sorbs2 #2
- GFP, % of control: 60.9
- viability (ATP), % of control: 69.1
- call: inactive

Sorbs2 #3
- GFP, % of control: 89.3
- viability (ATP), % of control: 69.8
- call: inactive

Eno4 #1
- GFP, % of control: 56.5
- viability (ATP), % of control: 42.7
- call: inactive

Eno4 #2
- GFP, % of control: 85.9
- viability (ATP), % of control: 79.8
- call: inactive

Eno4 #3
- GFP, % of control: 82.1
- viability (ATP), % of control: 70.3
- call: inactive

Depdc5 #1
- GFP, % of control: 73.9
- viability (ATP), % of control: 90.6
- call: inactive

Depdc5 #2
- GFP, % of control: 61.7
- viability (ATP), % of control: 46.4
- call: inactive

Depdc5 #3
- GFP, % of control: 45
- viability (ATP), % of control: 80.1
- call: inactive

Pdcd4 #1
- GFP, % of control: 88
- viability (ATP), % of control: 92.1
- call: inactive

Pdcd4 #2
- GFP, % of control: 86.8
- viability (ATP), % of control: 89.2
- call: inactive

Pdcd4 #3
- GFP, % of control: 85.1
- viability (ATP), % of control: 66.4
- call: inactive

Or1e35 #1
- GFP, % of control: 60
- viability (ATP), % of control: 62.2
- call: inactive

Or1e35 #2
- GFP, % of control: 62.6
- viability (ATP), % of control: 61.5
- call: inactive

Or1e35 #3
- GFP, % of control: 89.5
- viability (ATP), % of control: 107
- call: inactive

Rdh10 #1
- GFP, % of control: 65.7
- viability (ATP), % of control: 110
- call: inactive

Rdh10 #2
- GFP, % of control: 25
- viability (ATP), % of control: 34.8
- call: inactive

Rdh10 #3
- GFP, % of control: 132
- viability (ATP), % of control: 106
- call: active

H2-Ob #1
- GFP, % of control: 64.5
- viability (ATP), % of control: 47.2
- call: inactive

H2-Ob #2
- GFP, % of control: 98.9
- viability (ATP), % of control: 99
- call: inactive

H2-Ob #3
- GFP, % of control: 81.3
- viability (ATP), % of control: 79.9
- call: inactive

Calm1 #1
- GFP, % of control: 120
- viability (ATP), % of control: 103
- call: active

Calm1 #2
- GFP, % of control: 71.6
- viability (ATP), % of control: 69.4
- call: inactive

Fxyd1 #1
- GFP, % of control: 133
- viability (ATP), % of control: 76
- call: active

Fxyd1 #2
- GFP, % of control: 53.8
- viability (ATP), % of control: 56.6
- call: inactive

Fxyd1 #3
- GFP, % of control: 74
- viability (ATP), % of control: 70.2
- call: inactive

Sap30bp #1
- GFP, % of control: 77.1
- viability (ATP), % of control: 112
- call: inactive

Sap30bp #2
- GFP, % of control: 84.1
- viability (ATP), % of control: 81.7
- call: inactive

Sap30bp #3
- GFP, % of control: 81.2
- viability (ATP), % of control: 61.4
- call: inactive

Pxylp1 #1
- GFP, % of control: 50.3
- viability (ATP), % of control: 68.8
- call: inactive

Pxylp1 #2
- GFP, % of control: 57.2
- viability (ATP), % of control: 57.8
- call: inactive

Pxylp1 #3
- GFP, % of control: 86.2
- viability (ATP), % of control: 102
- call: inactive

Vps33a #1
- GFP, % of control: 52.9
- viability (ATP), % of control: 66.7
- call: inactive

Vps33a #2
- GFP, % of control: 34.4
- viability (ATP), % of control: 60.9
- call: inactive

Vps33a #3
- GFP, % of control: 134
- viability (ATP), % of control: 96.7
- call: active

Quoted from the listing (3 entries):
Pxylp1 #2
- GFP, % of control: 57.2
- viability (ATP), % of control: 57.8
- call: inactive

Pxylp1 #3
- GFP, % of control: 86.2
- viability (ATP), % of control: 102
- call: inactive

Vps33a #1
- GFP, % of control: 52.9
- viability (ATP), % of control: 66.7
- call: inactive
